Test results reported in PubChem BioAssay AID493014 (National Center for Advancing Translational Sciences (NCATS), 2011).
The other results are listed elsewhere or left out. Shown are side measurements of this screen, not its main read-out; they come without a call. Compounds called inactive in the main read-out are mostly missing here. The note in brackets gives the kind of curve behind each potency; many fits are weak.

Assay: qHTS Assay to Find Inhibitors of Chronic Active B-Cell Receptor Signaling
Conditions: ABC-DLBCL IkBa-CBG/CBR reporter, luminescence ratio (green luciferase fused to IkBa over red control in TMD8 lymphoma cells), 4 h
Outline: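 Doxycycline induced both beetle luciferases in TMD8 lymphoma cells; IKK-driven degradation limits the IkappaBalpha-fused green signal, while red luminescence normalises for cell number and nonspecific effects. Compounds tested up to 46 uM, 4 hrs.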

[1] = measured here: CBR red luminescence, cell number
[2] = measured here: IkBa-CBG green luminescence

SMILES	AC50 [1]	AC50 [2]
O=C(CCC1CCCCC1)NNC(=O)NC12CC3CC(CC(C3)C1)C2	20.6 µM [falling, single point]	
C=CC[C@@H](Cc1ccc(F)cc1)C(=O)OC[C@H]1CCCN1C(=O)[C@H](CC=C)CC(=O)N(CCO)Cc1ccccc1	29.1 µM [falling, single point]	
Cc1cccc(N=C/C(C(=O)C(F)(F)F)=C(\O)c2ccco2)c1	1.16 µM [falling, partial curve, poor fit]	
O=C(NCCCc1ccccc1)Nc1ccccc1	20.6 µM [falling, single point]	
CC(=O)Oc1ccc(C(=O)Nc2ccc3c(c2)OCCO3)cc1	3.98 µM [falling, partial curve]	
C[C@H](CO)N1C[C@H](C)[C@@H](CN(C)CC2CCCCC2)Oc2c(NC(=O)C3CC3)cccc2C1=O	32.6 µM [falling, single point]	
COc1cccc(-c2nn(C)c3sc(C(=O)NCc4ccc(C)o4)cc23)c1	3.26 µM [falling, partial curve]	2.06 µM [rising, partial curve, poor fit]
Cc1cc2nc(=O)c(/C=C3\C=Nc4ccccc43)c(N)n2o1	22.4 µM [rising, partial curve, poor fit]	
CC(C)c1c(O)c2c(n(-c3ccccc3)c1=O)CCCC2	3.26 µM [rising, single point]	
CCOC(=O)c1[nH]c(C)c(C(=O)OCC(=O)N(CC)C2CCS(=O)(=O)C2)c1C (configuration not stated)	2.31 µM [falling, partial curve]	
O=C(NCc1ccc(Cl)cc1)c1ccc(CNS(=O)(=O)c2ccc(F)cc2)cc1	12.6 µM [rising, partial curve, poor fit]	
CC(C)N1CCc2c(sc(NC(=O)c3ccc(S(=O)(=O)N(C)C4CCCCC4)cc3)c2C(N)=O)C1	17.8 µM [falling, partial curve, poor fit]	
COCCNC(=O)c1onc(CSc2ccc(F)c(F)c2)c1C(=O)O	28.2 µM [falling, single point]	
CCOC(=O)N/N=C/c1ccc(Oc2ccccc2)cc1	15.8 µM [falling, single point]	
O=C(NC1CCCCC1)C(c1cccnc1)N(C(=O)CCl)c1ccc(F)cc1 (configuration not stated)	10.3 µM [falling, partial curve, poor fit]	
CCOC(=O)c1oc2nc3c(cc2c1N)CCCC3	35.5 µM [falling, single point]	
CN(CCO)C(=O)c1ccc(-c2nn(C)c(=O)c3ccccc23)cc1	4.47 µM [rising, full curve, poor fit]	
CCOC(=O)N1CCC(Nc2ncnc3c2cnn3-c2ccccc2)CC1		9.2 µM [rising, partial curve, poor fit]
CCCCN=Cc1c(C)[nH]n(-c2ccccc2)c1=S	4.47 µM [rising, full curve, poor fit]	
CCOc1ccccc1Nc1nc(-c2sc(NC(=O)c3ccco3)nc2C)cs1	4.47 µM [falling, partial curve]	
COc1ccc(OCc2cc(C(=O)NCC3CCOCC3)no2)c(Cl)c1	3.16 µM [rising, single point]	

SMILES	AC50 [1]	AC50 [2]
COc1cc(C2=NOC(C(=O)NCc3ccc(F)cc3)C2)cc(OC)c1OC (configuration not stated)	4.61 µM [rising, partial curve, poor fit]	2.91 µM [falling, full curve]
CN1CCC(N(C)C(=S)NC(=O)C23CC4CC(CC(C4)C2)C3)CC1	23.1 µM [rising, partial curve, poor fit]	
COc1ccc(-c2nc(CC(=O)O)cs2)cc1	14.6 µM [rising, single point]	
COc1cccc(OC)c1C(=O)Nc1ccccc1NC(=O)c1c(OC)cccc1OC	7.08 µM [rising, full curve, poor fit]	
CC1CCN(C(=O)c2cccc(NC(=O)c3cccs3)c2)CC1	14.1 µM [falling, partial curve, poor fit]	
Cc1noc(NC(=O)c2c(-c3c(Cl)cccc3Cl)noc2C)c1[N+](=O)[O-]	31.6 µM [rising, single point]	
CCN(CC)C(=O)c1ccc(-c2cccs2)s1	0.447 µM [rising, full curve, poor fit]	
O=C(N/N=C/c1ccccc1)c1c(O)c2ccccc2[nH]c1=O	0.731 µM [falling, full curve]	
Cc1ccc(CN(CC(=O)NC2CCCC2)C(=O)CSc2nnc(COc3ccccc3)o2)cc1	0.116 µM [falling, partial curve, poor fit]	
Cc1ccc(OCC(=O)Nc2ccc(-c3nnc(-c4ccco4)o3)cc2)cc1	3.16 µM [rising, partial curve, poor fit]	
c1nc(CCO[C@H]2CCCCO2)cc2cc3c(cc12)OCO3	18.4 µM [falling, single point]	
c1ccc2c(NCC3CCCO3)nc(N3CCCCC3)nc2c1 (configuration not stated)	35.5 µM [rising, partial curve, poor fit]	
C[C@H]1CN=C(N(C)C)N1CC1CCC(C(C)(C)C)CC1 (some centres not stated)	20.6 µM [falling, single point]	
COc1ccc(Nc2nc3ccccc3n3nnnc23)cc1	29.1 µM [falling, single point]	
CCc1nnc(NC(=O)CSc2nnc(-c3ccccc3NC(=O)c3ccccc3)o2)s1	22.4 µM [falling, single point]	15.8 µM [falling, partial curve]
CCN(CC)CCn1c2c(c(SCC(=O)Nc3cccc4ccccc34)nc1=O)CCCC2	29.1 µM [falling, single point]	
Oc1ccc2ccccc2c1CNc1ccc(Br)cc1	4.47 µM [falling, partial curve, poor fit]	
Cc1[nH]c(=O)[nH]c(=O)c1CSc1nnc([C@@H](NC(=O)OC(C)(C)C)C(C)C)o1	35.5 µM [rising, partial curve, poor fit]	
CC(Oc1ccccc1)C(=O)N1CCN(C(=O)C(C)Oc2ccccc2)CC1 (configuration not stated)	2.51 µM [rising, partial curve, poor fit]	
CC1CN(S(=O)(=O)c2ccc(C(=O)N3CCc4ccccc43)cc2)CC(C)O1 (configuration not stated)		29.1 µM [rising, partial curve, poor fit]
COc1ccc(-n2c(=S)[nH]c3cc(C(=O)Nc4ccc(F)cc4)ccc3c2=O)c(OC)c1	31.6 µM [falling, single point]	

Part of the list above in order of number of heavy atoms, falling.
SMILES	AC50 [1]	AC50 [2]
Cc1ccc(CN(CC(=O)NC2CCCC2)C(=O)CSc2nnc(COc3ccccc3)o2)cc1	0.116 µM [falling, partial curve, poor fit]	
CCN(CC)CCn1c2c(c(SCC(=O)Nc3cccc4ccccc34)nc1=O)CCCC2	29.1 µM [falling, single point]	
COc1ccc(-n2c(=S)[nH]c3cc(C(=O)Nc4ccc(F)cc4)ccc3c2=O)c(OC)c1	31.6 µM [falling, single point]	
Cc1ccc(OCC(=O)Nc2ccc(-c3nnc(-c4ccco4)o3)cc2)cc1	3.16 µM [rising, partial curve, poor fit]	
Cc1noc(NC(=O)c2c(-c3c(Cl)cccc3Cl)noc2C)c1[N+](=O)[O-]	31.6 µM [rising, single point]	
CN1CCC(N(C)C(=S)NC(=O)C23CC4CC(CC(C4)C2)C3)CC1	23.1 µM [rising, partial curve, poor fit]	
O=C(N/N=C/c1ccccc1)c1c(O)c2ccccc2[nH]c1=O	0.731 µM [falling, full curve]	
COc1ccc(Nc2nc3ccccc3n3nnnc23)cc1	29.1 µM [falling, single point]	
C[C@H]1CN=C(N(C)C)N1CC1CCC(C(C)(C)C)CC1 (some centres not stated)	20.6 µM [falling, single point]	
COc1ccc(-c2nc(CC(=O)O)cs2)cc1	14.6 µM [rising, single point]	

2 entries drawn at random from the list so far:
SMILES	AC50 [1]	AC50 [2]
O=C(NC1CCCCC1)C(c1cccnc1)N(C(=O)CCl)c1ccc(F)cc1 (configuration not stated)	10.3 µM [falling, partial curve, poor fit]	
COc1ccc(Nc2nc3ccccc3n3nnnc23)cc1	29.1 µM [falling, single point]	

Following part:

SMILES	AC50 [1]	AC50 [2]
CC(C)(C)NC(=O)NCC1CCCC1NC(=O)NC(C)(C)C (configuration not stated)	0.398 µM [falling, partial curve, poor fit]	
CCC(C)NC(=O)Nc1ccc(Br)cc1Cl (configuration not stated)	10 µM [rising, partial curve, poor fit]	
CC(C)Oc1cccc(C(=O)N/N=C/c2ccoc2)c1	2.82 µM [falling, full curve, poor fit]	
O=C(CCn1nnc2ccccc21)Nc1nnc(COc2ccccc2F)s1	0.517 µM [falling, full curve, poor fit]	
O=C(O)c1ccc(CSc2nnc(COc3ccc(Cl)cc3Cl)o2)cc1	23.1 µM [falling, single point]	
COc1ccccc1C(=O)COC(=O)CCCN=C1NS(=O)(=O)c2ccccc21	10.3 µM [rising, partial curve]	
O=C(COc1ccc(Cl)cc1Cl)Nc1ccccc1NS(=O)(=O)c1cccs1	11.2 µM [rising, partial curve, poor fit]	
CCOC(=O)C1=C(C)N=C2c3ccccc3C(=O)C2C1c1ccc(Br)cc1 (configuration not stated)	23.1 µM [falling, single point]	32.6 µM [rising, partial curve, poor fit]
CC(=O)Nc1ccc(SCC(=O)N(CCC#N)c2cc(C)cc(C)c2)cc1	5.17 µM [falling, single point]	
Cc1nc(S/C(=C/c2ccc(-c3ccc(C(=O)O)cc3)o2)C(=O)O)n[nH]1	20 µM [falling, single point]	
COc1ccc(Cl)cc1NC(=O)C(C)Sc1nnc(C2CC2)n1C1CC1 (configuration not stated)	6.51 µM [falling, partial curve, poor fit]	
Cc1ccc2cccc(O)c2[n+]1[O-]	6.31 µM [falling, single point]	
CCc1nc2scc(-c3cccs3)c2c(=O)o1	18.4 µM [falling, single point]	
NS(=O)(=O)c1ccc(NNC(=O)c2cccs2)cc1	6.31 µM [falling, single point]	
COC(=O)c1ccccc1NC(=O)C(=O)NCc1ccncc1	35.5 µM [falling, single point]	
COc1ccc(-c2nnc(CSc3nnc(-c4ccncc4)n3C3CCCCC3)o2)cc1OC	0.00461 µM [falling, full curve, poor fit]	
CCOC(=O)CSc1nc2c(c(=O)[nH]1)C(C)(CC)Cc1ccccc1-2 (configuration not stated)	14.1 µM [rising, single point]	22.4 µM [falling, single point]
CCC(=O)Nc1ccc(-c2nc3ccccc3c(=O)o2)cc1	35.5 µM [falling, single point]	
CCCOC(=O)CC1C(=O)NCCN1Cc1cc(OC)cc(OC)c1 (configuration not stated)	35.5 µM [rising, partial curve, poor fit]	
O=C(COc1ccccc1F)NNC(=O)c1cccc(-n2cccc2)c1	12.6 µM [rising, partial curve, poor fit]	
